Measurements taken from patent EP3838286B1, “ANTIMICROBIAL PEPTIDE FROM POLISTES GALLICUS VENOM AND ITS ANALOGS” (Latoxan, priority 2019, dated 2021).

Key:
Assay in all cases: Antitumor / antiproliferative activity (resazurin)
Format in all cases: cell-based
MDA-MB-231 = settings: Homo sapiens, breast cancer cells, 5,000 cells/well, 48 h, read-out: IC50 antiproliferative effect MDA-MB-231
Description: (§1) Human cancer cell lines (Mia PaCa-2 (CRL-1420), PC-3 (CRL-1435), MDA-MB-231 (HTB-26)) and normal lung fibrobasts (BEAS-2B (ATCC CRL-9609) and IMR-90 (ATCC CCL-186)) were obtained from American Type Culture Collection (ATCC). HUVEC cells were obtained from Sigma Aldrich and were grown in defined all-in-one ready to use endothelial cell growth medium (Sigma Aldrich). Other cells were cultured in Dulbecco's modified Eagle's medium (DMEM, Gibco Life Technologies) supplemented with 10% heat-inactivated fetal calf serum (FCS, Lonza) at 37 °C in an incubator containing 5% CO2. Cells were sub-cultured in new media every 3-4 days. Antiproliferative / antitumor effects of the peptides were measured as previously described (Borie et al., Eur J Med Chem. 2018;148:306-313). Briefly, cells were detached from growing flask using trypsin, cells were counted and seeded in 96 well-plates in the growth media at an initial cell density of 5000 cells/well. Cells were left for 4 h to attach to the wells. Cells were then treated with increasing concentrations of peptides diluted in culture media. After 48 h incubation at 37 °C in a 5% CO2 incubator, wells were emptied and cell number was evaluated using Resazurin based in vitro toxicity assay kit (from Sigma-Aldrich) following manufacturer's instructions. Briefly, Resazurin stock solution was diluted 1:10 in sterile PBS containing calcium and magnesium (PBS, pH 7.4) and empty wells were filled with 100 µL of the diluted solution. After 4 h incubation at 37 °C, fluorescence intensity was measured using microplate reader (Synergy Mx, Biotek) with an excitation wavelength of 530 nm and an emission wavelength of 590 nm. The fluorescence values were normalized by the controls (buffer treated cells) and expressed as per-cent viability. […]

MiaPaCa-2 = settings: Homo sapiens, MIA PaCa-2; pancreas cancer cells; 5,000 cells/well; 48 h; read-out: IC50 antiproliferative effect MiaPaCa-2
Description: as §1

PC-3 = settings: Homo sapiens, prostate cancer cells, 5,000 cells/well, 48 h, read-out: IC50 antiproliferative effect PC-3
Description: as §1

Compound: COc1cc2c(c(OC)c1OC)-c1ccc(OC)c(=O)cc1[C@@H](NC(C)=O)CC2 [Col, colchicine]
- IC50 (MDA-MB-231): 9.01 nM
- IC50 (MiaPaCa-2): 1.52 nM
- IC50 (PC-3): 0.699 nM
